Laboratory results reported in the supplement of paper PMC8728848.
This is one part of the list.

Tests used:
Test in all cases: glycan array binding signal (z-score within array); higher = stronger binding
Conditions in all cases: glycan notation: IUPAC condensed, linker removed
[1] = target: Neu5Gc(a2-8)Neu5Gc(a2-3)Gal(b1-4)GlcNAc(b1-3)Gal(b1-4)GlcNAc
Outline: (§1)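 Glycan array binding is given as a within-array Z-score, which can be read as non-binding when negative. The arrays, 3228 of them, came from the Consortium for Functional Glycomics database and were retained only where the protein sequence was available. Z-scores were averaged across arrays of the same protein sequence at different concentrations or buffers and across linkers.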

[2] = target: Neu5Gc(a2-8)Neu5Gc(a2-6)Gal(b1-4)GlcNAc
Outline: as §1

[3] = target: Neu5Gc(b2-6)Gal(b1-4)GlcNAc
Outline: as §1

B1: MUB70 (Lactobacillus reuteri) (protein)
chain: CVHVQYIDGETDQMLRQDDLDGYTDETIPYSTAEGIKKFEGDGYELFKDNFPAGEKFDNDDTNDQFYTVIF
[1]
  glycan array binding signal (z-score): -0.59
[2]
  glycan array binding signal (z-score): -0.362
[3]
  glycan array binding signal (z-score): 0.109
